Amino acid sequences for entries named in this document (tags omitted). A change or cut given only in a name is not applied to a line headed by its entry.
UniProt Q00536: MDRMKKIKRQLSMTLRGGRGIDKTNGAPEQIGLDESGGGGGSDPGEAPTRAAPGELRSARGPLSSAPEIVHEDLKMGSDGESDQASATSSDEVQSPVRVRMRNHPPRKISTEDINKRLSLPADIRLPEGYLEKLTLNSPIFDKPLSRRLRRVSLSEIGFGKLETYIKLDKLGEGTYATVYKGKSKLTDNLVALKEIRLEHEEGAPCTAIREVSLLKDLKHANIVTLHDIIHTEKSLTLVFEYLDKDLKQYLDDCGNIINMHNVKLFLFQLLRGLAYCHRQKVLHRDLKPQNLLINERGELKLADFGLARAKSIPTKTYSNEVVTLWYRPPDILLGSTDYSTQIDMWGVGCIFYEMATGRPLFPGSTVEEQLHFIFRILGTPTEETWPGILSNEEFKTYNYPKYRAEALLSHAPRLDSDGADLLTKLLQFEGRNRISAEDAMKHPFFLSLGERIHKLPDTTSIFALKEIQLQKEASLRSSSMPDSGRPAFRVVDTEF
UniProt Q13177, whole entry: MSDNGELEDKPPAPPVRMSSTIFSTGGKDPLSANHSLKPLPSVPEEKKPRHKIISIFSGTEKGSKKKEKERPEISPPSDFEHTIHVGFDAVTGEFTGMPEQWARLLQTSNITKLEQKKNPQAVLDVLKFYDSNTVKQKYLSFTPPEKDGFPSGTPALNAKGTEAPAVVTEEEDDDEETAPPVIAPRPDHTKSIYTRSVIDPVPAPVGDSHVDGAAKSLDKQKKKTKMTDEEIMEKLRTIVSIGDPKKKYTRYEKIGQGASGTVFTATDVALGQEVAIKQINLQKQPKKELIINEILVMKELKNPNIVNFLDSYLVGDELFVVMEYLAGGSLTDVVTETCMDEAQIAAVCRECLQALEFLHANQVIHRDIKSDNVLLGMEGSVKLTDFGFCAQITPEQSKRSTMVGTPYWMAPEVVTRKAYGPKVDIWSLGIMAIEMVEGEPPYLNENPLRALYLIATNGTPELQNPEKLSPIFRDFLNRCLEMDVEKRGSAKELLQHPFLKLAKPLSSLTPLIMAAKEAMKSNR
UniProt Q13442: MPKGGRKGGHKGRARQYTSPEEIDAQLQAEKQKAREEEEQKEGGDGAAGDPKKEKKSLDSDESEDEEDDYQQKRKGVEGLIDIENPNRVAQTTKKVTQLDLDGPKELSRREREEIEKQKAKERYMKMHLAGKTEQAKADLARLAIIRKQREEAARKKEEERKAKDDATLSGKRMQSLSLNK
UniProt P30086: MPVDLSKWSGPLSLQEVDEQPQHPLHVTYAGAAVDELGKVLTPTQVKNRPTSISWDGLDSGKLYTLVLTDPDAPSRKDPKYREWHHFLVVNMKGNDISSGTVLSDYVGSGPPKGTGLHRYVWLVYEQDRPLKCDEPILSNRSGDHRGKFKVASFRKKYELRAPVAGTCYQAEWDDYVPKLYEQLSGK
UniProt Q6ZW49, whole entry: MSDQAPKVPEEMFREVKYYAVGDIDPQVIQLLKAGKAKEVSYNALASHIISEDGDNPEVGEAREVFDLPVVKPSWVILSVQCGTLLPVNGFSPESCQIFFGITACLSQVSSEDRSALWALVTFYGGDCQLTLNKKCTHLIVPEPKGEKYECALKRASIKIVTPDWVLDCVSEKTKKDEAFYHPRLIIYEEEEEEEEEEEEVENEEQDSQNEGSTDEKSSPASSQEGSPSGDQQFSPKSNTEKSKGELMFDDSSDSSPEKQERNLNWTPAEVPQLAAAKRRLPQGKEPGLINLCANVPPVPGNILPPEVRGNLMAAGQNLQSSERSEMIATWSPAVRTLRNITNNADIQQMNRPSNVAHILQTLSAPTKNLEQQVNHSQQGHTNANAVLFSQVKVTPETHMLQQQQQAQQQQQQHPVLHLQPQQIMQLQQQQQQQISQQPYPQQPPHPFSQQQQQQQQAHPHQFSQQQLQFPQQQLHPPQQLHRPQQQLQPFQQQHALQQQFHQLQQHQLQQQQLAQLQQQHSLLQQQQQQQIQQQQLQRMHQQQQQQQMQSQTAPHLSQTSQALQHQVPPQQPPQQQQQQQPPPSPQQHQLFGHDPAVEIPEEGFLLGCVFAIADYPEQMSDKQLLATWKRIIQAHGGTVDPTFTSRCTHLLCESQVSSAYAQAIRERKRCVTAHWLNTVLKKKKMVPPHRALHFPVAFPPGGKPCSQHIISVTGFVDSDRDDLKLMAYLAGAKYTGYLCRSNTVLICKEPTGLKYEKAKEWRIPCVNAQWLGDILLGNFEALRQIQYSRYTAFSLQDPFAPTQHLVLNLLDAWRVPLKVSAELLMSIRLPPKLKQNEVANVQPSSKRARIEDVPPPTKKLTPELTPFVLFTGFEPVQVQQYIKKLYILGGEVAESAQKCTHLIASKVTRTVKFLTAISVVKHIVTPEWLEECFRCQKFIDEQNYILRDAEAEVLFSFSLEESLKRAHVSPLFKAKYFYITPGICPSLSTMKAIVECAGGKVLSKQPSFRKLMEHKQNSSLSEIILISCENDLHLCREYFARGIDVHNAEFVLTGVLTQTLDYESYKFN
UniProt A8MXV4: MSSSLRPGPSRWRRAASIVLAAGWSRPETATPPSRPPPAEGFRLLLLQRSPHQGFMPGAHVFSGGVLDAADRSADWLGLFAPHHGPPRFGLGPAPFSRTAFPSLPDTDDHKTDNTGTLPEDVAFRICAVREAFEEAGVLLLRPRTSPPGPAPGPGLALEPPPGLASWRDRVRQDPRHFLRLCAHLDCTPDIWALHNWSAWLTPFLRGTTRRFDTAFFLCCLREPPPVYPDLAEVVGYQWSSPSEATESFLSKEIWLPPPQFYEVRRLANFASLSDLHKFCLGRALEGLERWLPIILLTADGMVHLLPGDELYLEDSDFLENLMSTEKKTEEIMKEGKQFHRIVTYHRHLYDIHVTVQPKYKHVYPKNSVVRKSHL
UniProt Q9BRQ3: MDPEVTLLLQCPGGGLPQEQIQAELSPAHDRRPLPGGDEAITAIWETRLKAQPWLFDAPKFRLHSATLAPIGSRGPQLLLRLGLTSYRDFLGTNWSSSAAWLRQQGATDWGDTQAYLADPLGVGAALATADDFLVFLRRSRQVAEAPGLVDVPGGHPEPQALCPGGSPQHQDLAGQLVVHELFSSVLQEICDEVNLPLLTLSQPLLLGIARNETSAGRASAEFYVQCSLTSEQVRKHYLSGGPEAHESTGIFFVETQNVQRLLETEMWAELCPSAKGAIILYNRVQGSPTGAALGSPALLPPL
UniProt Q9NXX6: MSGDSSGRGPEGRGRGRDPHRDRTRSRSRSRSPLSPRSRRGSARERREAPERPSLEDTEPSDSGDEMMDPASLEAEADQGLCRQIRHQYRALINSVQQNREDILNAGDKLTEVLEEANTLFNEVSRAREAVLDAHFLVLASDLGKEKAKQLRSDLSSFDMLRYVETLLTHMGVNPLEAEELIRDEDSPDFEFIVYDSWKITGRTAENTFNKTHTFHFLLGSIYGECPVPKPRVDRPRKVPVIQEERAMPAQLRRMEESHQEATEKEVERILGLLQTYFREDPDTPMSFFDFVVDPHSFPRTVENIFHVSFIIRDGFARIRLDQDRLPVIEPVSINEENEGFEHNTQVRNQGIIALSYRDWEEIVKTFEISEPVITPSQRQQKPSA
UniProt Q9UKK3: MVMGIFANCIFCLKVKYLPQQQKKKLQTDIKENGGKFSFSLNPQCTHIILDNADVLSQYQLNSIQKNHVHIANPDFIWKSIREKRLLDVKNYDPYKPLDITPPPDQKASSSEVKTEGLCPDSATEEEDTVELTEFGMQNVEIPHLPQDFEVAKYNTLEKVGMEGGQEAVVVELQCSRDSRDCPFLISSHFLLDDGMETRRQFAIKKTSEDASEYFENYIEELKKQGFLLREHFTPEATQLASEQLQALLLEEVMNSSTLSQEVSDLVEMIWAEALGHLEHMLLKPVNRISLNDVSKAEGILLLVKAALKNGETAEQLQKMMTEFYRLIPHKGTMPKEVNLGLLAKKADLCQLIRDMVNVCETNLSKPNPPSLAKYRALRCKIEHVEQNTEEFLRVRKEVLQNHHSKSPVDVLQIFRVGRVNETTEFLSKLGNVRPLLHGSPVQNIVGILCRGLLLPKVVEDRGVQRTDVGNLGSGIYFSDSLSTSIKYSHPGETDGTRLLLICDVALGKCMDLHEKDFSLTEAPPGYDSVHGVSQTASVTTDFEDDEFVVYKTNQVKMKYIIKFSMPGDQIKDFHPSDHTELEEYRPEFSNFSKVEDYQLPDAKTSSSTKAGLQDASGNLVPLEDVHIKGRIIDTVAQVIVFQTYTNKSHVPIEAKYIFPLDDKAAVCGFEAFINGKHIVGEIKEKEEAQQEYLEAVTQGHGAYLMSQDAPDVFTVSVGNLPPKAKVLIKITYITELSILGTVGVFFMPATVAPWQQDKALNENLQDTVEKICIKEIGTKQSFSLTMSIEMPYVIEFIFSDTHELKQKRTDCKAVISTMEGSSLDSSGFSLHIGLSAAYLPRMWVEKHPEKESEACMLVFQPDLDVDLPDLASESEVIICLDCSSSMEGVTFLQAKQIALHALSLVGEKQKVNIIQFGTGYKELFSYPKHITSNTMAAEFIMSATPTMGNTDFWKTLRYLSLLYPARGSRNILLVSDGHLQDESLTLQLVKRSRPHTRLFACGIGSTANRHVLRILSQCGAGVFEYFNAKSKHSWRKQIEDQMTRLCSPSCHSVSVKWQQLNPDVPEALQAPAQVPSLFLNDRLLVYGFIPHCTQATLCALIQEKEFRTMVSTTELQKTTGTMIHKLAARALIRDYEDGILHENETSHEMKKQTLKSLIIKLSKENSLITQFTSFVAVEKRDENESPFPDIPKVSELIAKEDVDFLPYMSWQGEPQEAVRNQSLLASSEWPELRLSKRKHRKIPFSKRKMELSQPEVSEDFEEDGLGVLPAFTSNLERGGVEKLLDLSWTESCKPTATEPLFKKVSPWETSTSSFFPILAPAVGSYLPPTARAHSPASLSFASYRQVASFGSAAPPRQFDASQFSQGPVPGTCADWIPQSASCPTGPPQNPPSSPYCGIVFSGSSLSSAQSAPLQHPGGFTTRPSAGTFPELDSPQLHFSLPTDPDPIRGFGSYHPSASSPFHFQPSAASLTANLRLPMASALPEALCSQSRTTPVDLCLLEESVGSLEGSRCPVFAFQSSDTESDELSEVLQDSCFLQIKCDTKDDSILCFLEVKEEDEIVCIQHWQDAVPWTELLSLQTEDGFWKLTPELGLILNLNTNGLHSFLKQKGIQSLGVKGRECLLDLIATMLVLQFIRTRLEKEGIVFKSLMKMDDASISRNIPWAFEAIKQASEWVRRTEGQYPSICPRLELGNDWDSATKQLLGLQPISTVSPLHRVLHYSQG
UniProt P27815: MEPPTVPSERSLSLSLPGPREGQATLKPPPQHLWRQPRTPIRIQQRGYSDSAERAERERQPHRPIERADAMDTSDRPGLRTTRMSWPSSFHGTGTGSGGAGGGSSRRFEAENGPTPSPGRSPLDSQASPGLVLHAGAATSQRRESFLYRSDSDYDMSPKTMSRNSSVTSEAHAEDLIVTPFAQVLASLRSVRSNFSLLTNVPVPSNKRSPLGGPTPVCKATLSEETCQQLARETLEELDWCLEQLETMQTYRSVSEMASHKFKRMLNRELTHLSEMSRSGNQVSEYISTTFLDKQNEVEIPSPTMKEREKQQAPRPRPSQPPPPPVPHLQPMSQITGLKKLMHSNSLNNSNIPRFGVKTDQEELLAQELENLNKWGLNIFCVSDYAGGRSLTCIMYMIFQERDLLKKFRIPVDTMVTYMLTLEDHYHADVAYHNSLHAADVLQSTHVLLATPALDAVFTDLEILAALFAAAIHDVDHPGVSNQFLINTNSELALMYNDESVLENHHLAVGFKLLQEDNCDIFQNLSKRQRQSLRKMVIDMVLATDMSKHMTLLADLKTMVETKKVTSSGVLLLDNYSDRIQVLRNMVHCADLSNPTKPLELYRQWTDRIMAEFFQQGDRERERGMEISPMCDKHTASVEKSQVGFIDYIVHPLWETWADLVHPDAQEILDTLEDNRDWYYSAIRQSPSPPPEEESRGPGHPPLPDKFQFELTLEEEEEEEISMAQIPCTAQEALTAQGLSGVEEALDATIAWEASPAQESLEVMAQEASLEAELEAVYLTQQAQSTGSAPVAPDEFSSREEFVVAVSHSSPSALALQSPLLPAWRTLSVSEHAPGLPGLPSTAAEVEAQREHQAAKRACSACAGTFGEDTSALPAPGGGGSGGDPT

Some of the results follow.
The targets below were run with COc1ccc(Cn2ccc3ccc(C(=O)NO)cc32)cc1 (assay: dose-dependent thermal stabilisation call (2D-TPP, DLPTP, 10% FDR) (binary (1 = stabilised)); higher = stabilised by the compound). Settings: system: HL-60 intact cells; concentration range 0.04-10 µM.
PCTK1 (UniProt Q00536) was tested, and the “dose-dependent thermal stabilisation call” value was inactive: 0. For PAK2 (UniProt Q13177), the “dose-dependent thermal stabilisation call” value was inactive: 0. In the case of PDCD6IP (UniProt Q8WUM4), the “dose-dependent thermal stabilisation call” value is reported as inactive: 0. In the case of PDAP1 (UniProt Q13442), the “dose-dependent thermal stabilisation call” value is reported as inactive: 0. With PEBP1 (UniProt P30086) the “dose-dependent thermal stabilisation call” value was inactive: 0. For PAXIP1 (UniProt Q6ZW49), the “dose-dependent thermal stabilisation call” value was inactive: 0. NUDT19 (UniProt A8MXV4) was tested, and the “dose-dependent thermal stabilisation call” value was inactive: 0. With NUDT22 (UniProt Q9BRQ3) the “dose-dependent thermal stabilisation call” value was inactive: 0. With NSMCE4A (UniProt Q9NXX6) the “dose-dependent thermal stabilisation call” value was inactive: 0. With PARP4 (UniProt Q9UKK3) the “dose-dependent thermal stabilisation call” value was inactive: 0. In the case of PDE4A (UniProt P27815), the “dose-dependent thermal stabilisation call” value is reported as inactive: 0.

Reference: the supplement of paper PMC7666118
